Source: PubChem BioAssay AID588497 (NMMLSC, 2011)
Where “and” joins values, the source holds several entries; their conditions need not be identical. Equal entries are not always repeated. About 780 (0.22%) of roughly 360,000 compounds were called active. The shares of active, inactive and inconclusive entries below differ from those in the screen. Cut-off read from the data, not from the text of the source: active = inhibition above about 35% (passing the limit was not always enough); inconclusive = no clear call, values can overlap the other calls.

tested on: Botulinum neurotoxin type F light chain protease (Clostridium botulinum); assay: BoNT/F light chain protease inhibitors, primary screen, biochemical, flow cytometry, MLPCN library (AID 588497); settings: Multiplex microsphere protease cleavage assay, at 10 µM, hits give high values; note: plate controls were buffer without enzyme for full effect and enzyme alone for no effect

SMILES	inhibition
CCOC(=O)c1nnn(-c2nonc2N)c1CN(C)C1CCCCC1	inconclusive: -20.8%
COc1cc(/C=N/NC(N)=O)cc(Br)c1OCc1ccc(C)cc1	inactive: 2.2%
Cc1cc(C)c(S(=O)(=O)/N=C2\C=C(Nc3ccc(C(=O)O)cc3)C(=O)c3ccccc32)c(C)c1	inactive: 0.2%
[N-]=C=C1C(=S)NC(=O)[C@H]([n+]2ccccc2)[C@H]1c1ccc(Cl)cc1	inconclusive: -17.9%
COC(=O)c1ccc(COc2ccc(C=O)cc2)o1	inconclusive: 9.4%
CC1=NN(c2ccccc2)C(=O)/C1=C/c1ccc(Cl)cc1	inconclusive: 29%
COc1cc(COc2ccc3c(C)c(Cc4ccccc4)c(=O)oc3c2C)cc(OC)c1OC	inconclusive: -29.4%
COc1ccc(OCC(=O)OC2CCCN(C)C2)cc1 (configuration not stated)	inconclusive: -7.8%
O=C(COC(=O)c1cc([N+](=O)[O-])ccc1N1CCOCC1)Nc1ccccc1OC(F)F	inactive: 0.5%
COc1ccccc1OCCSc1nc2ccccc2n1CC(O)CO (configuration not stated)	inconclusive: -13.9%
COc1ccc(CN2CCN(CCc3ccccc3)C(CCO)C2)c(Cl)c1OC (configuration not stated)	inconclusive: 48.9%
COc1cc2cc(CN(CCCO)S(=O)(=O)c3ccccc3)c(=O)[nH]c2cc1OC	inactive: -3.8%
COCCNC(=O)CN(C(=O)c1ccc(N2CCCC2)nc1)c1ccc(F)c(Cl)c1	inconclusive: -25.9%
Cc1onc(-c2c(F)cccc2Cl)c1C(=O)N=C(N)N1CC(C)OC(C)C1 (configuration not stated)	inconclusive: 73.2%
CCOC(=O)Cn1c(C)[n+](CC(=O)c2ccccc2)c2ccccc21	inconclusive: 39.6%
CC(C)(C)C(=O)NNC(=O)c1ccc(Oc2cc(Cl)cc(Cl)c2)o1	inconclusive: 24.2%
Cc1ccc(-c2csc3nnc(SCC(=O)Nc4nsc(-c5ccccc5)n4)n23)cc1	inactive: 3.8%
CCNC(=S)N(CCCN(C)C)Cc1cc2cc3c(cc2[nH]c1=O)OCCO3	inconclusive: -15.5%
CCc1c(C)nc2ncnn2c1Nc1ccccc1C	inconclusive: 21.2%

Of the compounds above, three have fluorine:
SMILES	inhibition
O=C(COC(=O)c1cc([N+](=O)[O-])ccc1N1CCOCC1)Nc1ccccc1OC(F)F	inactive: 0.5%
COCCNC(=O)CN(C(=O)c1ccc(N2CCCC2)nc1)c1ccc(F)c(Cl)c1	inconclusive: -25.9%
Cc1onc(-c2c(F)cccc2Cl)c1C(=O)N=C(N)N1CC(C)OC(C)C1 (configuration not stated)	inconclusive: 73.2%

Next part

SMILES	inhibition
CCc1ccc(S(=O)(=O)NCc2cccnc2)cc1	inconclusive: -14.1%
N#CCOC(=O)c1sccc1-n1cccc1	inconclusive: -31.1%
Cc1cc(C)nc(N2CCN(C(=O)CCC(=O)Nc3nnc(CC(C)C)s3)CC2)n1	inconclusive: 9.2%
COc1cc(OC)cc(-c2c(C#Cc3ccsc3)c3cc(-c4ccc(C(N)=O)cc4)ccc3n2C)c1	inactive: -6.6%
CC1=NNC(=O)C1CC(=O)N/N=C/c1ccncc1 (configuration not stated)	inconclusive: 102%
Cc1cccc(-n2c(C)c(C)c3c(N)ncnc32)c1	inactive: -1.5%
CCOC(=O)c1cnc2c(c(C)nn2C)c1Oc1cc(Cl)cc(Cl)c1	inconclusive: 180%
COC(=O)N/N=C/c1ccc(-c2ccccc2Cl)o1	inconclusive: -8.2%
COc1ccc(C(=O)CNc2ccc(C)cc2C)cc1	inconclusive: -49.1%
CCn1c(C)nc2cc(C(=O)N/N=C/c3ccc(OC)c(O)c3)ccc21	inactive: -2.5%
O=C(CCCCCCCCCCC(=O)NCc1cccnc1)NCc1cccnc1	inconclusive: -2.3%
COc1ccccc1N(Cc1cc2ccc(C)cc2[nH]c1=O)C(C)=O	inconclusive: 7.8%
CCOc1cc(CNCCc2ccccc2F)ccc1OC	active: 83.3%
CNC(=O)C1(c2ccccc2)CCCCC1	inactive: 4.7%
CCOC(=O)c1cnc2ccc(C)cc2c1N(C)Cc1ccccc1	inactive: -27%
Cn1c(SC/C=C/c2ccccc2)nnc1-c1cccs1	inactive: -5.2%
CSc1nnc(C(C)(C)C)c(=O)n1/N=C/c1ccc(C(C)C)cc1	inconclusive: 8%
O=C(NCc1ccccn1)c1ccccc1Cl	inactive: 0.3%
COCCN1C(=O)C(CC(=O)Nc2ccc(C(C)=O)cc2)SC1=Nc1ccccc1 (configuration not stated)	inactive: 6% and inactive: -0.2%

SMILES	inhibition
COc1cc(C(C)=O)ccc1OCC(O)Cn1nc(C)c(C(C)=O)c1C (configuration not stated)	inconclusive: -3.1%
COc1ccc(OCc2nnc(SC(C)C(=O)Nc3ccc(N4CCOCC4)cc3)n2C)cc1 (configuration not stated)	inactive: -1.4%
O=c1[nH]c2ccsc2c(=O)n1-c1ccc(F)cc1	inactive: -0.1%
Cc1cc(=O)n2c(n1)NC(Nc1cccc(C)c1C)=NC2c1ccc(F)cc1 (configuration not stated)	inconclusive: 24.4%
COC(=O)c1ccccc1NC(=O)CCNC(=O)Cn1cnc2ccccc2c1=O	inconclusive: 15.5%
N/C(=N\OC(=O)c1ccncc1)c1cccc([N+](=O)[O-])c1	inconclusive: -27%
C=CCOc1ccc(C2OC34CCCCC3C(C#N)(C#N)C2(C#N)C(=N)O4)cc1 (configuration not stated)	inactive: 9%
Cn1c2ccc(Br)cc2c2nnc(SCC(=O)O)nc21	inconclusive: -40.7%
C/C(=N/NC(=O)CC(=O)N/N=C(\C)c1ccc([N+](=O)[O-])cc1)c1ccc([N+](=O)[O-])cc1	inconclusive: 63.9%
COc1cc(NC(=O)CCc2nc(-c3cccs3)no2)cc(OC)c1OC	active: 41.6%
CCC(C)(C)C(=O)Nc1nnc(CCc2ccccc2)s1	active: 35.7%
CC(C)(C)c1ccc(C(=O)N2CCCN(c3ccc([N+](=O)[O-])cn3)CC2)cc1	inconclusive: 8.5%
CC(=O)OCCOc1nc(N(C)C)nc(N(C)C)n1	inconclusive: -33.8%
Cn1c(=O)c2c(O)c([N+](=O)[O-])c(=O)n(C)c2n(C)c1=O	inconclusive: -11.8%
CCCOc1ccc2oc(=O)c3c(c2c1)CCCN3C(=O)CN1CCN(c2ncccn2)CC1	inconclusive: -88.4%
COc1cccc(C(=O)NCCN2CCN(c3ccccc3)CC2)c1	inconclusive: -0.2%
NS(=O)(=O)c1ccc(NNC(=O)c2ccc(F)cc2F)cc1	inconclusive: 8%
CC(=O)Oc1ccccc1Cn1c(C)c(C(=O)NCc2ccccc2C(F)(F)F)sc1=O	inactive: -2.4%
O=C(O)c1cccc2c1NC(c1cccc([N+](=O)[O-])c1)C1CC(Sc3ccccc3[N+](=O)[O-])C(Cl)C21 (configuration not stated)	inconclusive: -9.3%
